In the test the target is Populus euphratica calcium-dependent protein kinase 21 fused to cYFP (Populus euphratica). Description: split reporter; BiFC; PeCPK21 in pSPY-CE and AtNF-YC3 in pSPY-NE, Agrobacterium GV3101 infiltrated into tobacco (N. benthamiana) leaves, kept in the dark for 48 h; YFP fluorescence by confocal microscopy.

No constants are given. Whether binding was seen depends on the method and setting. Binding seen in cells or lysates may run through a third protein. Binding can be weak; no strength is given. Where a sequence is shown, tags or fusion partners need not be part of it.

Results on 1 molecule are retold here after PMC11240976.

B1: Arabidopsis nuclear transcription factor YC3 fused to nYFP (protein, UniProt Q9ZVL3 1-217)
chain: MDQQGQSSAMNYGSNPYQTNAMTTTPTGSDHPAYHQIHQQQQQQLTQQLQSFWETQFKEIEKTTDFKNHSLPLARIKKIMKADEDVRMISAEAPVVFARACEMFILELTLRSWNHTEENKRRTLQKNDIAAAVTRTDIFDFLVDIVPREDLRDEVLGGVGAEAATAAGYPYGYLPPGTAPIGNPGMVMGNPGAYPPNPYMGQPMWQQPGPEQQDPDN
For B1, the binding result is reported as “binds”.
